Laboratory results as given in the supplement of paper PMC7666118.
The list shows a part of the results.

By UniProt entry, the sequences of proteins in these tests, tags left out. Where a name states a change or a piece, a line headed by the entry shows the natural chain unless it says otherwise.
UniProt P07108: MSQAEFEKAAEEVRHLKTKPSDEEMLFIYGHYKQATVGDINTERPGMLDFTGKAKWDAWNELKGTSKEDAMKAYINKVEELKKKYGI
UniProt P17844: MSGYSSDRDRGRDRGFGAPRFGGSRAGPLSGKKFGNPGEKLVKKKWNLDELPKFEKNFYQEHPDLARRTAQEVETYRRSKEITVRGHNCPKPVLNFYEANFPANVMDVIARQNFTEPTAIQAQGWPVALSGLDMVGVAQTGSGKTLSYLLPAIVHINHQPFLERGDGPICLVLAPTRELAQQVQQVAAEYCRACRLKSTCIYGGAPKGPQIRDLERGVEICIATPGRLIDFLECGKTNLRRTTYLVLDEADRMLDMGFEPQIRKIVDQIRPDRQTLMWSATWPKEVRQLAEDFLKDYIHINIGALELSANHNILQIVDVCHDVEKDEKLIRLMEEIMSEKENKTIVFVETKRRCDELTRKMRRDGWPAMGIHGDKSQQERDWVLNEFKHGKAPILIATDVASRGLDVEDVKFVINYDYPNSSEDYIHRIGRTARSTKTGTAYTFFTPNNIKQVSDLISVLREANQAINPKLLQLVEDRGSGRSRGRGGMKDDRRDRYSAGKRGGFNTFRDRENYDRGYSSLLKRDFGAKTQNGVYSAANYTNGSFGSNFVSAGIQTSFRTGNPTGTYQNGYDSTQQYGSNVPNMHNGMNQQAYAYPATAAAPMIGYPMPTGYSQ
UniProt Q9H467: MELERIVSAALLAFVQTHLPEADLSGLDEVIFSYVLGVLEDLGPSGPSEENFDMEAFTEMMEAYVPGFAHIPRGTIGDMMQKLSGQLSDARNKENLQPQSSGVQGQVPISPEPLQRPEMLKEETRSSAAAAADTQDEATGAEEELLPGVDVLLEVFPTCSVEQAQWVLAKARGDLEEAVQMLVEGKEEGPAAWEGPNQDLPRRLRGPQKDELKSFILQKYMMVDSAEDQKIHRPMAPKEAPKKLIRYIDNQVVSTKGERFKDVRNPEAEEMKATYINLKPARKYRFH
UniProt P24311, whole entry: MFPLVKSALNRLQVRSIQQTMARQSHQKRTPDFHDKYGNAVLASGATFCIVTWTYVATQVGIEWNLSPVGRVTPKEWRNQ
UniProt Q9NR28: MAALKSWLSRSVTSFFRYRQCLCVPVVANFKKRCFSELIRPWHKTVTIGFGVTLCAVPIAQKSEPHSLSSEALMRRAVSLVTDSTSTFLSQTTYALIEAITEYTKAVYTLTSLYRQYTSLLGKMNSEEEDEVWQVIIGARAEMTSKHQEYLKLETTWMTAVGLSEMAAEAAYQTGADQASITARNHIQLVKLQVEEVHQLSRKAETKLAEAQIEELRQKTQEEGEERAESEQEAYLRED
UniProt P13498: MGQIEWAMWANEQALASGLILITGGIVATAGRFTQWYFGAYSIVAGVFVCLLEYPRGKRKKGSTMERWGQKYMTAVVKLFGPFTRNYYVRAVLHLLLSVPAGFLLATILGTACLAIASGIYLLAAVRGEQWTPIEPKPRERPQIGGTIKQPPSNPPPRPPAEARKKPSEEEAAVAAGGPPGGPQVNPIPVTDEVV
UniProt Q9UER7, whole entry: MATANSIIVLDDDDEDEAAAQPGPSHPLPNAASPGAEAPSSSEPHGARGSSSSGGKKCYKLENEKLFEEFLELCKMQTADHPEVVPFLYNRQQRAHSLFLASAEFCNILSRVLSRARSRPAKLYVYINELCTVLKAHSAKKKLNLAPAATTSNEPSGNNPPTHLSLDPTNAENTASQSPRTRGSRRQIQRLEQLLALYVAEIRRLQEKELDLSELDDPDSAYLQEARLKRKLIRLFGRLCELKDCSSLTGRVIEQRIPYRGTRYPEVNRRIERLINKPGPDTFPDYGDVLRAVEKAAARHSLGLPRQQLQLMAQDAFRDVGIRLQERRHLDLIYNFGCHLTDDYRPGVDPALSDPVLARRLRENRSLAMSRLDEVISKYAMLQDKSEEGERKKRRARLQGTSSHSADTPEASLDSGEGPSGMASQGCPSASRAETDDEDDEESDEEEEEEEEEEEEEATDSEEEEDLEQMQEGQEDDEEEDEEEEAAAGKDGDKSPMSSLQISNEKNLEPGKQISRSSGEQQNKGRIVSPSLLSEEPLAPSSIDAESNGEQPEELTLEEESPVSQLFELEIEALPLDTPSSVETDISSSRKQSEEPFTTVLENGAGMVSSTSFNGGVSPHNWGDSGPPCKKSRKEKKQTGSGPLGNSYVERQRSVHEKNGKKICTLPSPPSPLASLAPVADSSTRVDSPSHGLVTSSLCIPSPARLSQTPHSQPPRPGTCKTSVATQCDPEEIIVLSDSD
UniProt Q13561, whole entry: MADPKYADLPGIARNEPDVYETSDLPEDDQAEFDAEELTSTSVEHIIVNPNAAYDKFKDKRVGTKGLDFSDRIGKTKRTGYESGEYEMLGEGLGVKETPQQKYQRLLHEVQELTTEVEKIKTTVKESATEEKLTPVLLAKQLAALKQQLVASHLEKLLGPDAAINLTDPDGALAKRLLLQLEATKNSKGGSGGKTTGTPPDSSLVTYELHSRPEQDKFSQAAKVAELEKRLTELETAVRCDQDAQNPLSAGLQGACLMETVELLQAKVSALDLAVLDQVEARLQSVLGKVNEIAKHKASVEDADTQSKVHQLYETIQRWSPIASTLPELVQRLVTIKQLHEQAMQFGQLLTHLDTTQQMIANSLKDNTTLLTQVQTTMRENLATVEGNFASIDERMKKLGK
UniProt Q92828: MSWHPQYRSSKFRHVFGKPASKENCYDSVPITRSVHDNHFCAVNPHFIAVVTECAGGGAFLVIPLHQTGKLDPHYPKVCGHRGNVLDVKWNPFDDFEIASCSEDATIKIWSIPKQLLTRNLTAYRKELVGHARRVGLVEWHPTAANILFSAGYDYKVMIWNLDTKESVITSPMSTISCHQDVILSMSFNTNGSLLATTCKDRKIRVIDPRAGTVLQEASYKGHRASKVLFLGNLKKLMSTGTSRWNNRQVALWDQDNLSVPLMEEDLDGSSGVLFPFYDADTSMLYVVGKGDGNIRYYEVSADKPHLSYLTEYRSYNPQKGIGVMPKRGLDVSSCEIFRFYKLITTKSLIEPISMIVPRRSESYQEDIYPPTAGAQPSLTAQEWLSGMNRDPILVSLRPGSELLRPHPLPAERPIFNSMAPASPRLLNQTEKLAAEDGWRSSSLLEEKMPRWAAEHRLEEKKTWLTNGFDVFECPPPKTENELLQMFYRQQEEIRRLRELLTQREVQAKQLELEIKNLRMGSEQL
UniProt Q08211, whole entry: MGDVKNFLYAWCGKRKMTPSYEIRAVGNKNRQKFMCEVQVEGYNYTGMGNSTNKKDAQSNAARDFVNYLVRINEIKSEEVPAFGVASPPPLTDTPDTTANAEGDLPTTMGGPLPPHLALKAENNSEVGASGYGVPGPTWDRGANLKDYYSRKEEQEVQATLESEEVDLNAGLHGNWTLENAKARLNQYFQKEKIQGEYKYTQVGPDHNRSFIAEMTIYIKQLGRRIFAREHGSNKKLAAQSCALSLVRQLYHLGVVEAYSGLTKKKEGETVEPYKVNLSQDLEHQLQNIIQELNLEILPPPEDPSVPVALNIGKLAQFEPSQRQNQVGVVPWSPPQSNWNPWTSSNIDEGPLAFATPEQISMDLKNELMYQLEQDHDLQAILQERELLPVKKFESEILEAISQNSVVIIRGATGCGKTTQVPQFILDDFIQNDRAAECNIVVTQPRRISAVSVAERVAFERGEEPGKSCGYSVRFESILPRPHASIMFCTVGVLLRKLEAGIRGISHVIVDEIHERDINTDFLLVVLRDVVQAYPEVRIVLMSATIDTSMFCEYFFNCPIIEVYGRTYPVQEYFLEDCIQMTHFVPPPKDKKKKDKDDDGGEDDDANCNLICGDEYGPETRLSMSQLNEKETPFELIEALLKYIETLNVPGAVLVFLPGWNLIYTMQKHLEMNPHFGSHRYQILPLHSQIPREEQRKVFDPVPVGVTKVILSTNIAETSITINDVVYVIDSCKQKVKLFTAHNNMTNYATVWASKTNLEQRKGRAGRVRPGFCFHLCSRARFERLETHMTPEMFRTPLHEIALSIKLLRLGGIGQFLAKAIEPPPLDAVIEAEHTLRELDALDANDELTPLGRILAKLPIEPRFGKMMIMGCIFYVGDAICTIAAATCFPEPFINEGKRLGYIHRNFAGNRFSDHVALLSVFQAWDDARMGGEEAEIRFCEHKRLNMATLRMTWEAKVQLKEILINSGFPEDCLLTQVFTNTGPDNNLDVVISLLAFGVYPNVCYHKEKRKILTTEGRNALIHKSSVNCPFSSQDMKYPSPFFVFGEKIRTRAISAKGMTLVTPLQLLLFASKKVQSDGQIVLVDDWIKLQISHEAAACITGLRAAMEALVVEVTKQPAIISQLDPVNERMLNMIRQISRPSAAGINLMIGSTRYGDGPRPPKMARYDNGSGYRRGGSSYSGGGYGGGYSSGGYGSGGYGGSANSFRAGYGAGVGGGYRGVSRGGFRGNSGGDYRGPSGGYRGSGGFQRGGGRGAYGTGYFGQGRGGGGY
UniProt Q9HCG8: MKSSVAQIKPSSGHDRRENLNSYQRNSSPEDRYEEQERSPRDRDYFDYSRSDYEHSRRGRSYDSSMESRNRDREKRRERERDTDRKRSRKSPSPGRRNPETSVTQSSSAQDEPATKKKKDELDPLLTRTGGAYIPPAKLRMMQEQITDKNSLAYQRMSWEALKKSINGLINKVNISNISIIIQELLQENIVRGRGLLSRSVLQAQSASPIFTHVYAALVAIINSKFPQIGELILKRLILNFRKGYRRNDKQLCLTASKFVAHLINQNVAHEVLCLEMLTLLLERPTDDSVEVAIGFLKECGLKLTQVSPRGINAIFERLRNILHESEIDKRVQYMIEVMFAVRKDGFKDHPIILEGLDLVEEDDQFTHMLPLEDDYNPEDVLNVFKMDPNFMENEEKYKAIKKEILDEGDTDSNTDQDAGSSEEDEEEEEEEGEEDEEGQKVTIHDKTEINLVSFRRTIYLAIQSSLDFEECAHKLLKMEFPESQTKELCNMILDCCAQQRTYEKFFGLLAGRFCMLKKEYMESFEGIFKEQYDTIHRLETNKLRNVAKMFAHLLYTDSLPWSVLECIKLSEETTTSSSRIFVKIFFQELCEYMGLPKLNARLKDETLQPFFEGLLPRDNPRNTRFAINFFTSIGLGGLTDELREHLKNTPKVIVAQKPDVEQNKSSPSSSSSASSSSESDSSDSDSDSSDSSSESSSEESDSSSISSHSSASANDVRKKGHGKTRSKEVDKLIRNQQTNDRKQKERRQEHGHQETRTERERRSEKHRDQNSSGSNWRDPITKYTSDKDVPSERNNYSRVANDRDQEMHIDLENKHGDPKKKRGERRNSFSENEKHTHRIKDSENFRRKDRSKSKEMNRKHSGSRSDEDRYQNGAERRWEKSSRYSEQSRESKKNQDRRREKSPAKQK
UniProt P35659: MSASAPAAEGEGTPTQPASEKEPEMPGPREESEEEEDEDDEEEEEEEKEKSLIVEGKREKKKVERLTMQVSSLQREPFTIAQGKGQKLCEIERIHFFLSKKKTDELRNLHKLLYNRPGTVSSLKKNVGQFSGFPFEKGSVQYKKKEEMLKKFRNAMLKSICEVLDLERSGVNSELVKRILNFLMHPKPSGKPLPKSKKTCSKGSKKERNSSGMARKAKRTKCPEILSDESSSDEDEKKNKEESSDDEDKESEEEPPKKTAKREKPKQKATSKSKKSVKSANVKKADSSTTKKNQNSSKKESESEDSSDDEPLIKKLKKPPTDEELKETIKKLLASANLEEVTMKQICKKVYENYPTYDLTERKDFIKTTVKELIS
UniProt Q9UBF2: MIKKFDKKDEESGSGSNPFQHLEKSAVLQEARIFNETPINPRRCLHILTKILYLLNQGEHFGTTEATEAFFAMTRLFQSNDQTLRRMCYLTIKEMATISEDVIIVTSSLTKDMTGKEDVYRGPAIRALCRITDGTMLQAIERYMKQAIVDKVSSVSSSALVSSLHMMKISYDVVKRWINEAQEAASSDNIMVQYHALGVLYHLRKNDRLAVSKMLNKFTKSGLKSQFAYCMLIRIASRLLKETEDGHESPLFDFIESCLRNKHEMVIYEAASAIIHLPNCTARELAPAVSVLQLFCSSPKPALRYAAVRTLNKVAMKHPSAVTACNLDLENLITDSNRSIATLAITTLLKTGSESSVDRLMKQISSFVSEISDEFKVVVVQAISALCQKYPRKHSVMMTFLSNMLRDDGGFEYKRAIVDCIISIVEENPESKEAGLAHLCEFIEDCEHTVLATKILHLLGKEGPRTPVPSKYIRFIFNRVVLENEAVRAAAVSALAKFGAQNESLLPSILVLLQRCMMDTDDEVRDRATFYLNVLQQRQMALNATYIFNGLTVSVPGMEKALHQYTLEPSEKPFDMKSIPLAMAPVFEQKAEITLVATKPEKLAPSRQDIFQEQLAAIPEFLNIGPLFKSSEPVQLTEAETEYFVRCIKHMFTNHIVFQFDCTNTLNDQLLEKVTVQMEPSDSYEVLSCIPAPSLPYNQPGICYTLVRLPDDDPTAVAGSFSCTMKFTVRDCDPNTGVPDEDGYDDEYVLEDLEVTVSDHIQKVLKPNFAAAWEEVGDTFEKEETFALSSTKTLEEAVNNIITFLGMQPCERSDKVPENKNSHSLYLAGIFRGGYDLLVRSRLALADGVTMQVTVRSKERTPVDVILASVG

Compound: COc1ccc(Cn2ccc3ccc(C(=O)NO)cc32)cc1
Test: dose-dependent thermal stabilisation call (2D-TPP, DLPTP, 10% FDR) (binary (1 = stabilised)); higher = stabilised by the compound
Conditions: system: HL-60 intact cells; concentration range 0.04-10 µM

Row | Target | dose-dependent thermal stabilisation call
1 | DDX55 (UniProt Q8NHQ9) | inactive: 0
2 | DBI (UniProt P07108) | inactive: 0
3 | DDX5 (UniProt P17844) | inactive: 0
4 | CYP2U1 (UniProt Q7Z449) | inactive: 0
5 | CUEDC2 (UniProt Q9H467) | inactive: 0
6 | DHRS7 (UniProt Q9Y394) | inactive: 0
7 | CSTF1 (UniProt Q05048) | inactive: 0
8 | COX7B (UniProt P24311) | inactive: 0
9 | COQ6 (UniProt Q9Y2Z9) | inactive: 0
10 | DIABLO (UniProt Q9NR28) | inactive: 0
11 | CYBA (UniProt P13498) | inactive: 0
12 | CTDP1 (UniProt Q9Y5B0) | inactive: 0
13 | DAXX (UniProt Q9UER7) | inactive: 0
14 | COX5B (UniProt P10606) | inactive: 0
15 | CPOX (UniProt P36551) | active: 1
16 | DCTN2 (UniProt Q13561) | inactive: 0
17 | COPS4 (UniProt Q9BT78) | inactive: 0
18 | DHX40 (UniProt Q8IX18) | inactive: 0
19 | DHRS9 (UniProt Q9BPW9) | inactive: 0

Part of the list above, set out differently.
Row,Target,dose-dependent thermal stabilisation call
5,CUEDC2 (UniProt Q9H467),inactive: 0
6,DHRS7 (UniProt Q9Y394),inactive: 0
7,CSTF1 (UniProt Q05048),inactive: 0
8,COX7B (UniProt P24311),inactive: 0
9,COQ6 (UniProt Q9Y2Z9),inactive: 0
10,DIABLO (UniProt Q9NR28),inactive: 0
11,CYBA (UniProt P13498),inactive: 0
12,CTDP1 (UniProt Q9Y5B0),inactive: 0
13,DAXX (UniProt Q9UER7),inactive: 0
14,COX5B (UniProt P10606),inactive: 0
15,CPOX (UniProt P36551),active: 1

(listing goes on)

Row | Target | dose-dependent thermal stabilisation call
20 | CUL9 (UniProt Q8IWT3) | inactive: 0
21 | DAZAP1 (UniProt Q96EP5) | inactive: 0
22 | CORO2A (UniProt Q92828) | inactive: 0
23 | CREG1 (UniProt O75629) | inactive: 0
24 | DHX9 (UniProt Q08211) | inactive: 0
25 | COX2 | inactive: 0
26 | DHX38 (UniProt Q92620) | inactive: 0
27 | CWC22 (UniProt Q9HCG8) | inactive: 0
28 | CYB5R3 (UniProt P00387) | active: 1
29 | DDX50 (UniProt Q9BQ39) | inactive: 0
30 | DEK (UniProt P35659) | inactive: 0
31 | COMMD4 (UniProt Q9H0A8) | inactive: 0
32 | CTBP1 (UniProt Q13363) | inactive: 0
33 | DCK (UniProt P27707) | inactive: 0
34 | CRTC2 (UniProt Q53ET0) | inactive: 0
35 | CSNK1D (UniProt P48730) | inactive: 0
36 | DHX16 (UniProt O60231) | inactive: 0
37 | COPG2 (UniProt Q9UBF2) | inactive: 0
